# Test results published in article PMC4191344, “Identification and characterization of Aβ peptide interactors in Alzheimer’s disease by structural approaches” (Frontiers in Aging Neuroscience, 2014).
# Entries after “also recorded” stand apart in the source; their conditions may differ.
# Tested on: EP24.15
# Experiment: Aβ cleavage assay with purified EP24.15, MALDI-TOF MS
# Format: biochemical
# Details: purified wild type EP24.15, 300 µM Aβ peptide, pH 7.4, 37°C; mass spectrometry
substance,measurement,value
"EP24.15: soluble, 77 kD metalloendopeptidase in the family of zinc metallopeptidases",catabolism of Aβ by EP24.15 (in words),ability to catabolize Aβ 1–42; also recorded: direct degradation of Aβ
